Some peptides are written in HELM: one residue between dots, names in brackets for other building blocks, links after the first $.
Test: general procedure: Fmoc solid-phase peptide synthesis; Rink-amide MBHA or 2-CTC; HBTU/DIPEA or DIC/DMAP
Conditions: whole synthesis, HPLC

Row | Substance | purity (crude or final not stated)
1 | H-Phe-Glu-Ile-Ile-NH2 | 97%
2 | PEPTIDE1{F.E.L.L.[am]}$$$$V2.0 | 99%
3 | PEPTIDE1{F.E.L.L}$$$$V2.0 | 98%
4 | PEPTIDE1{F.E.V.V.[am]}$$$$V2.0 | 96%
5 | PEPTIDE1{F.E.[Nle].[Nle].[am]}$$$$V2.0 | 96%
